Experimental data from patent publication US7989590B2 (Rohto Pharmaceutical Co., Ltd, priority 2005, dated 2011).

Columns and labels:
[1] = general procedure: Fmoc solid-phase peptide synthesis; resin for solid-phase synthesis; conditions: whole synthesis, 220 nm
[2] = general procedure: Fmoc solid-phase peptide synthesis; 4-methylbenzhydrylamine resin; conditions: whole synthesis, reversed phase HPLC, absorbance at 220 nm

Row | Substance | final HPLC purity [1] [%] | final purity (method not given) [2] [%]
1 | PEPTIDE1{L.E.H.A}$$$$V2.0 | 99 | –
2 | PEPTIDE1{L.E.H.A.[am]}$$$$V2.0 | – | 94.0

Strings that start with PEPTIDE1 are HELM notation: dots part the residues, brackets hold end groups and non-standard residues.
